This data set addresses T1, RNase H (Escherichia coli) (UniProt P0A7Y4).
T1 sequence (looked up, limits assumed): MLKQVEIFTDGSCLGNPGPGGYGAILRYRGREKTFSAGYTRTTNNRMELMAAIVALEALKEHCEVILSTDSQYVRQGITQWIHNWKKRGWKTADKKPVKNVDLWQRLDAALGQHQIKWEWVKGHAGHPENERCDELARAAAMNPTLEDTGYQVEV
The experiment in a line: enzyme reaction in vitro. The following applies: [strand 1: 1 (5' F label)], purified recombinant protein, label: 5' 6-FAM on RNA, DNA:RNA hybrid, letters built from the parent sequence and the stated change.

Tags and fusion partners may be left off the protein sequences shown.

On to “ACUGUGCGUGGAAAGCGUAG / CTACGCTTTCCACGCACAGT [F-rA-20 / d20A heteroduplex]”, for which the “activity on this sequence” value (RNA strand degraded, 20 mM Tris-HCl pH 7.5, 20 mM KCl, 1 mM MgCl2, 37 C, 1 h) was “active”.

Regarding “ACUGUGCGUGGAAAGCGUAG / TTGGGTGGGTGGGTGGGTTCTACGCTTTCCACGCACAGT [F-rA-20 / dA20-G4 heteroduplex]”, for the setting “G4 at 5' end compatible with RNase H, 1 mM MgCl2, 20 mM KCl, 37 C, variant of F-rA-20 / d20A heteroduplex”, the “activity on this sequence” value is “active”.

Regarding “ACUGUGCGUGGAAAGCGUAG / TTGGGTGGGTGGGTGGGTTACGCTTTCCACGCACATTGGGTGGGTGGGTGGGT [F-rA-20 / dG4TT-A16i-TTG4 heteroduplex]”, the “activity on this sequence” value (G4 at both ends compatible with RNase H, 1 mM MgCl2, 20 mM KCl, 37 C, variant of F-rA-20 / dA16i heteroduplex) is recorded as “active”.

Consider “ACUGUGCGUGGAAAGCGUAG / CTACGCTTTCCACGCACAGTTTGGGTGGGTGGGTGGGTT [F-rA-20 / dG4-20A heteroduplex]”, for which, where the note is “G4 at 3' end compatible with RNase H, 1 mM MgCl2, 20 mM KCl, 37 C, variant of F-rA-20 / d20A heteroduplex”, the “activity on this sequence” value is “active”.

Consider “ACUGUGCGUGGAAAGCGUAG / ACGCTTTCCACGCACA [F-rA-20 / dA16i heteroduplex]”, for which, where the note is “conventional ASO control, 1 mM MgCl2, 20 mM KCl, 37 C”, the “activity on this sequence” value is given as “active”.

The values are drawn from patent US20210139893.
